Measured values: PubChem BioAssay AID504847 (National Center for Advancing Translational Sciences (NCATS), 2011)
Out of some 400,000 compounds screened, about 3,700 (0.93%) were called active. The inconclusive results got no clear call from the source; some entries with a clear call stand among them for comparison. The call rests on the fitted dose curve; in most records, active means well fitted inhibition curve with a large enough effect; inconclusive means small, poorly fitted or top-dose-only effect, or another doubt; inactive means no such curve, though single readings can be large or run the other way. A potency beside an inconclusive call is a rough fit, not a confirmed value.

Sequences of proteins named here, by UniProt entry; tags and fusion partners are left off. A change or cut given only in a name is not applied to a line headed by its entry.
UniProt P11473: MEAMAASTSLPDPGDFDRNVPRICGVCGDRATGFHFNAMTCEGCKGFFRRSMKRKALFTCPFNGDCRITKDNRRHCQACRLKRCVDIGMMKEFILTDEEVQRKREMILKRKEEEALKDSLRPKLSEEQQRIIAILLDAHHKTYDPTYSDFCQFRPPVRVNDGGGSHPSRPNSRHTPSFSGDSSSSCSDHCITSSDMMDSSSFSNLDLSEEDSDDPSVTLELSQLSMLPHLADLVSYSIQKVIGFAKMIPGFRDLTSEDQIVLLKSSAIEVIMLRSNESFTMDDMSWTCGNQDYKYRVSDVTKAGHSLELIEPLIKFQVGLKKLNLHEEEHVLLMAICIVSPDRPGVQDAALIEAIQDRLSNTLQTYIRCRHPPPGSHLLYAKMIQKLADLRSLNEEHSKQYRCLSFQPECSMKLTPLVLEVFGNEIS

target: Vitamin D3 receptor (Homo sapiens) (UniProt P11473); assay: Inhibitors of the vitamin D receptor (VDR): qHTS; conditions: VDR-SRC2-3 peptide fluorescence polarization, 2 h; max response, negative = inhibition: stronger effect = lower value
Method in brief: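 Compounds are added to VDR with labelled SRC2-3 coactivator peptide and held 2 h at room temperature. Inhibition of the VDR–peptide interaction is then read as a change in fluorescence polarization.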
On the % scale 0 is the no-effect control and ±100 the full control effect; potency means the concentration at half of the fitted maximal effect.

Max response, negative = inhibition, inactive:
Cn1c(SCC(=O)NC(C)(C)C)nnc1-c1cccc(NC(=O)c2ccccc2F)c1 4.56%
COc1ccc(S(=O)(=O)N(CC(=O)Nc2ccc(F)c(Cl)c2)c2ccc(C)cc2)cc1OC 18.8%
CCOC(=O)c1ccc(NC(=O)CNC(=O)C23CC4CC(CC(C4)C2)C3)cc1 21.6%
CCCCNS(=O)(=O)CCNCc1ccc(OC)cc1 -0.56%
COc1ccc(-c2nc(C)c(CCNC(=O)C(=O)Nc3ccccc3F)s2)cc1 -0.233%
CCC(NC(=O)c1cc(COc2ccc(Cl)cc2OC)on1)c1ccncc1 (stereo not drawn) -3.96%
COC(=O)C1=C(C)NC(C)=C(C(=O)OC)C1c1ccc(-c2cccc([N+](=O)[O-])c2)o1 -15.4%
Cc1ccccc1-n1c(SCC(=O)Nc2ccc(Cl)cc2Cl)nc(O)cc1=O -7.18%
O=C(CCc1ccccc1)NCc1ccncc1 0.465%
O=C1C(NS(=O)(=O)c2cccs2)=C(N2CCN(c3cccc(C(F)(F)F)c3)CC2)C(=O)c2ccccc21 -14.3%
CN(C)C(=O)CCC(=O)N1CCCC(C(=O)c2ccc(C(F)(F)F)cc2)C1 (stereo not drawn) 6.55%
CCCCn1c(N)c(N(C)C(=O)c2cc3c(F)cccc3s2)c(=O)[nH]c1=O -8.46%
O=C(NCNC(=O)c1ccccc1)c1ccccc1 6.12%
O=C(O)CSc1nnc(Cn2nnc3ccccc32)n1CCc1ccccc1 2.08%
CCC(CC)N1CCN(C(=O)c2cc(OC)c(OC)c(OC)c2)CC1 -2.56%
NC(=S)Nc1cccc(F)c1 -10.5%

Random excerpt: 3 records from the list.
Max response, negative = inhibition, inactive:
COc1ccc(S(=O)(=O)N(CC(=O)Nc2ccc(F)c(Cl)c2)c2ccc(C)cc2)cc1OC 18.8%
CCCCNS(=O)(=O)CCNCc1ccc(OC)cc1 -0.56%
CN(C)C(=O)CCC(=O)N1CCCC(C(=O)c2ccc(C(F)(F)F)cc2)C1 (stereo not drawn) 6.55%

Next part.

Potency, active:
O=[N+]([O-])c1cc2no[n+]([O-])c2cc1N1CCCCC1 39.8 µM
CC1C/C(=C/c2ccccn2)C(=O)/C(=C/c2ccccn2)C1 (stereo not drawn) 28.2 µM
O=C(Nc1cccc(C(F)(F)F)c1)Nc1cc(Cl)ccc1C(=O)O 50.1 µM
Cc1ccc(-n2c(N)c(C(=O)N3CCOCC3)sc2=S)c(C)c1 79.4 µM
Cc1ccccc1-c1cc(N2CCNCC2)ncn1 44.7 µM

Potency, inconclusive:
CN(C(=O)COC(=O)c1cc([N+](=O)[O-])ccc1Cl)c1ccccc1 79.4 µM [inhibitor, partial curve, poor fit]
Cc1cnc(CNc2ccnc(-c3ccoc3)n2)cn1 44.7 µM [inhibitor, full curve]
O=C1C2C(c3ccccc3)(C(=O)N1c1ccc(Cl)cc1)C2(c1ccccc1)c1ccccc1 (stereo not drawn) 35.5 µM [inhibitor, partial curve, poor fit]
CCCCC1=CC2=C(c3ccco3)C(=O)C(C)(OC(=O)c3ccc(OC)cc3)C(=O)C2=CN1CCc1ccccn1 (stereo not drawn) 100 µM [inhibitor, single point]
COc1cc2cc(/C=C/C(=O)c3ccco3)c(Cl)nc2cc1OC 56.2 µM [inhibitor, partial curve, poor fit]
CC(C)n1nnc(-c2ccc(OCc3ccccc3F)cc2)n1 8.91 µM [inhibitor, partial curve, poor fit]
COc1ccc(NS(=O)(=O)c2ccc(C)cc2)c([N+](=O)[O-])c1 10 µM [inhibitor, partial curve, poor fit]
O=C(CS(=O)(=O)Cc1ccccc1)N1CCN(Cc2ccc3c(c2)OCO3)CC1 25.1 µM [inhibitor, single point]
COc1cccc(-c2nccc(NCc3cccs3)n2)c1 70.8 µM [inhibitor, partial curve]
N#CC1=C(N)SC(N)=C(C#N)C1c1cccc(Oc2ccccc2)c1 15.8 µM [inhibitor, full curve, poor fit]
COc1cc(/C=C/C(=O)c2ccc(C)c([N+](=O)[O-])c2)cc(OC)c1O 12.6 µM [inhibitor, full curve, poor fit]
CC(C)(C)NC(=O)C[C@H]1C[C@H](C(=O)N2CCCCC2)[C@@]2(C)c3[nH]c4cc(-c5ccco5)ccc4c3CCN2C1=O 100 µM [inhibitor, single point]
CCN(CC)c1ccc2oc(=O)c(C)nc2c1 17.8 µM [inhibitor, full curve, poor fit]
O=C(CN(Cc1ccccc1Cl)C(=O)CN1C(=O)CSc2ccccc21)NC1CC1 70.8 µM [inhibitor, single point]
O=C1N[C@@H]2[C@H](CCCCC(=O)Oc3ccc([N+](=O)[O-])cc3)SC[C@H]2N1 50.1 µM [inhibitor, partial curve, poor fit]
NNC(=O)c1sccc1OCc1ccc(Cl)cc1Cl 89.1 µM [inhibitor, single point]
O=C(O)CCc1ccc(-c2cccs2)o1 56.2 µM [inhibitor, partial curve, poor fit]
CC(=O)N1c2ccc(S(=O)(=O)NCC3CCC(C(=O)Nc4ncccc4C)CC3)cc2CC1C (stereo not drawn) 39.8 µM [inhibitor, partial curve, poor fit]
COC(=O)c1cccnc1 79.4 µM [inhibitor, partial curve, poor fit]
O=C(CSc1ncc(C(F)(F)F)cc1Cl)N1CCN(S(=O)(=O)c2ccc3ccccc3c2)CC1 79.4 µM [inhibitor, single point]
Cc1c(CC(=O)N[C@@H](C)C(=O)O)c(=O)oc2cc3occ(-c4ccccc4)c3cc12 70.8 µM [inhibitor, partial curve, poor fit]
Cc1cc(C)nc(SCc2cc(=O)c(OC(=O)c3ccc(S(=O)(=O)N4CCCC4)cc3)co2)n1 79.4 µM [inhibitor, partial curve, poor fit]
